Source: PMC12981028
These are yes or no findings as the source states them, for the method shown. In cells and extracts the contact can be indirect. Some entries that bind do so weakly or less than the wild type.

The chains behind the UniProt entries cited, without tags or fusion partners.
UniProt P26196: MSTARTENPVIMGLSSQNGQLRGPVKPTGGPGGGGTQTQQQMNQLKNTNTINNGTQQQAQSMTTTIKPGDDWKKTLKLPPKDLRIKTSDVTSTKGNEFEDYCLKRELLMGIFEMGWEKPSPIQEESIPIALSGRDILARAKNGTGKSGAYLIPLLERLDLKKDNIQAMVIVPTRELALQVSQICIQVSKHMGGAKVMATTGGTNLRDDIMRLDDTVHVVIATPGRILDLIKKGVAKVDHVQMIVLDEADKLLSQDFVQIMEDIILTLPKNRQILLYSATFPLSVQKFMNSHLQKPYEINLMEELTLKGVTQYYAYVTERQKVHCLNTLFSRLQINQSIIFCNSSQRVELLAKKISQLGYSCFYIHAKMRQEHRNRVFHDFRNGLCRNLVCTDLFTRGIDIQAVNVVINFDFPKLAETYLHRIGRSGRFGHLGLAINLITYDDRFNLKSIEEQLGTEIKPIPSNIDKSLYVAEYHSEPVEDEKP
UniProt P11142: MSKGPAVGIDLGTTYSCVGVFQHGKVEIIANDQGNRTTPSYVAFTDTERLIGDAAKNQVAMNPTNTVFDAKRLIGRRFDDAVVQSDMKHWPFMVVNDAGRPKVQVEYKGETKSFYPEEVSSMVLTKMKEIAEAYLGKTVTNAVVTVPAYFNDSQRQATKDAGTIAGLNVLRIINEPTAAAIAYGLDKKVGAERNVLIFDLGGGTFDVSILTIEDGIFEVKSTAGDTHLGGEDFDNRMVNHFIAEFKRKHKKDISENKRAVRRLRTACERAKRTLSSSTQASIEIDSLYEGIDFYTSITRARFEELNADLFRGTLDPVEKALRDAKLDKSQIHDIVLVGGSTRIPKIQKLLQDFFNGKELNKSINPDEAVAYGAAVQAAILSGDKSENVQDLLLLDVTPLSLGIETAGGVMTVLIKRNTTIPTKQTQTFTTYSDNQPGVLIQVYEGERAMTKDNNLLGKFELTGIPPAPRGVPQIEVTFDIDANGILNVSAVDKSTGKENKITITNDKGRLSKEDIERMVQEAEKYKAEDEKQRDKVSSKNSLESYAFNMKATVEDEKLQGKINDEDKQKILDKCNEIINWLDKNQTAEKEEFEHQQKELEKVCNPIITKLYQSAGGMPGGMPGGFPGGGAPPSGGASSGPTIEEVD

Molecular target: DDX6 (Rck/p54) (human (endogenous in MCF-7/A and MCF-7/T)) (UniProt P26196)
Assay: co-IP; lysates of drug-resistant cells treated with or without FA; antibody pre-coupled to protein A/G agarose beads, incubated with total protein extract at 4 °C overnight, washed with PBS, western blot

Substance: HSC70 (from UniProt P11142 1-646)
- binding: binds
